Assay results: article PMC4624959
These are yes or no findings as the source states them, for the method shown. In cells and extracts the contact can be indirect. Some entries that bind do so weakly or less than the wild type. Sequences can lack the tags named with a protein.

By UniProt entry, the sequences of proteins in these tests, tags left out.
UniProt Q9UKV8: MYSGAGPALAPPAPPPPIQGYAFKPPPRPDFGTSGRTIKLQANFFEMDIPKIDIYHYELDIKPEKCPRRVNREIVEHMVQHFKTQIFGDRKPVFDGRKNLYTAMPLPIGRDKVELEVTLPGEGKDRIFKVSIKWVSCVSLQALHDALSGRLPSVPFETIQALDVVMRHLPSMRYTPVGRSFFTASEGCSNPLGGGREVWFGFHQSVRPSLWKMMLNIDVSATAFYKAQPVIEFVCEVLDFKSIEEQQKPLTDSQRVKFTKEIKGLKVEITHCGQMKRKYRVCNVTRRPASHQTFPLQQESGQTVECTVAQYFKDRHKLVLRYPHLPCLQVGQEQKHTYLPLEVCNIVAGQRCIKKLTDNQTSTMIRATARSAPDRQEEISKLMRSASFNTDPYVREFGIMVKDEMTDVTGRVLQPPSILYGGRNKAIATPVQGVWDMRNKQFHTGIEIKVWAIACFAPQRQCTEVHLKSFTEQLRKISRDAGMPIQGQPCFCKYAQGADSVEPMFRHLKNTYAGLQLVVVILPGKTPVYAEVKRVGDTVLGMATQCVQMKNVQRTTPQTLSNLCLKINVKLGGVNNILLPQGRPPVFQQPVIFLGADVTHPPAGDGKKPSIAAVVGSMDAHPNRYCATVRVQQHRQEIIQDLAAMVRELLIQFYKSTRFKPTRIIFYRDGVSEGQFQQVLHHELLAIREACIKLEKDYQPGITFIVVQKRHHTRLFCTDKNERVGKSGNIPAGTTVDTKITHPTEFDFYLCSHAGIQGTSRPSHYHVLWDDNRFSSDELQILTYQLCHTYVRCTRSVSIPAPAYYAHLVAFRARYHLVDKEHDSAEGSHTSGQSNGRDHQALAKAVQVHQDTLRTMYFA

Biological target: T1, GST-PIAS3-PINIT (UniProt Q9Y6X2)
T1 sequence: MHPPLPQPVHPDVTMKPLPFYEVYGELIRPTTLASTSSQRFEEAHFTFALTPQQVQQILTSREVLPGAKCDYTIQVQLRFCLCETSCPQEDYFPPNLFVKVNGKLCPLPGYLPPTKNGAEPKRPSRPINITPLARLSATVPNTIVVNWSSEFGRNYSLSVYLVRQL
Experiment: pull-down; GST or GST-PINIT on glutathione sepharose beads, incubated with lysate of COS-7 cells transfected with myc-Ago2 (0.25-1 mg total protein), 4 °C, 1 h; washed in 10 mM HEPES, 150 mM NaCl, pH 7.5, 0.005% Triton-X100; western blot for myc; only the target purified

binding: binds
Substance: myc-Ago2 (human myc-tagged Argonaute-2) (from UniProt Q9UKV8 1-859)
